{"source": "patent US8790735B2", "about": "“Method of preferentially reducing absorption of saturated fat and compositions” (General Mills, Inc., priority 2005, dated 2014)", "origin": "cited, not measured here", "conditions": "25° C.; cited from earlier work"}
{"compound": "OC[C@H]1O[C@@H]2O[C@H]3[C@H](O)[C@@H](O)[C@@H](O[C@H]4[C@H](O)[C@@H](O)[C@@H](O[C@H]5[C@H](O)[C@@H](O)[C@@H](O[C@H]6[C@H](O)[C@@H](O)[C@@H](O[C@H]7[C@H](O)[C@@H](O)[C@@H](O[C@H]1[C@H](O)[C@H]2O)O[C@@H]7CO)O[C@@H]6CO)O[C@@H]5CO)O[C@@H]4CO)O[C@@H]3CO", "note": "[α-cyclodextrin, alpha-cyclodextrin]", "values": [{"measurement": "solubility in water", "result": "about 14 gm/100 mL"}]}
